This passage reports binding results from PMC6566402.

By UniProt entry, the sequences of proteins in these tests, tags left out. Where a name states a change or a piece, a line headed by the entry shows the natural chain unless it says otherwise.
UniProt P61169: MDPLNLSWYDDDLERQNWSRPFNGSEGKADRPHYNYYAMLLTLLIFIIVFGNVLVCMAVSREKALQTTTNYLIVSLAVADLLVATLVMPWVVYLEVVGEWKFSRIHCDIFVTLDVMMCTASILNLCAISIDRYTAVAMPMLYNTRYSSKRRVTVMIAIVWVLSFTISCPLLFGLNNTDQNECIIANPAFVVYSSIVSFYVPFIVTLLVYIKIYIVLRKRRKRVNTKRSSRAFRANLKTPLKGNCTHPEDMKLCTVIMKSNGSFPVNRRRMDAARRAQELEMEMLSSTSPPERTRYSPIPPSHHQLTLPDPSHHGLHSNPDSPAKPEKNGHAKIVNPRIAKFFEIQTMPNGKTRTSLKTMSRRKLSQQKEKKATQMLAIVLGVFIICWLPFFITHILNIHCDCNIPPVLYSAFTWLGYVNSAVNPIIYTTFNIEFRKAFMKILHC
UniProt P30543: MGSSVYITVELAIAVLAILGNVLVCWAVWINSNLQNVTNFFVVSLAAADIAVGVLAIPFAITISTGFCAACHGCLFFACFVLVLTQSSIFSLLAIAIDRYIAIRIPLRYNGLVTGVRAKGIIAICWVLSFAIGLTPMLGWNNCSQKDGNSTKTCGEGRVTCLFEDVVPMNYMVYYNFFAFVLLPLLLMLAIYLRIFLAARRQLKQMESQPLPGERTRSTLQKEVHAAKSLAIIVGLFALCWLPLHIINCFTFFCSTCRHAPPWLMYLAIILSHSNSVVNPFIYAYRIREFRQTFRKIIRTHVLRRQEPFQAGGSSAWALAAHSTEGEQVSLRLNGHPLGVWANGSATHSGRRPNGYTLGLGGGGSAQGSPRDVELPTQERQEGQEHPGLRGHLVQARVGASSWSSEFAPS

Results are given in words; binding and its absence hold for the method and conditions named. In cells and extracts the contact can be indirect. Some results given as binding are weak or reduced against the parent protein; the word gives no strength.

In experiment [1] the target is dopamine D2 receptor (rat (endogenous in striatal astrocyte processes and striatal slices)) (UniProt P61169). The experiment in a line: proximity ligation; in situ PLA (Duolink) on 10 µm rat striatal slices with anti-A2A and anti-D2 primary antibodies; GFAP co-staining to identify astrocytes; confocal microscopy.
Experiment [2] shares this target. The experiment in a line: co-IP; 300 ug Triton X-100-soluble membrane proteins of rat striatal gliosomes; 1 ug anti-A2A or anti-D2 antibody overnight at 4 °C, protein G-sepharose; 50 mM sodium borate, 0.1 mM EDTA, pH 7.5, 0.2% Triton X-100; immunoblot of IP and Output. (Immunoblotting shows a protein as a band on a membrane.)
Experiment [3] deals with adenosine A2A receptor (rat (endogenous in striatal astrocyte processes and striatal slices)) (UniProt P30543). Described as above.

Turning to “adenosine A2A receptor (from UniProt P30543 1-410)”, the binding entry in experiment [1] and in experiment [2] was “binds” throughout. Take “dopamine D2 receptor (from UniProt P61169 1-444)”: in experiment [3], the binding entry is reported as “binds”.
